Three sequences from US6620914, “Transcription factor islet-brain 1 (IB1)” (Gerard) can be followed below.

Amino acid sequences for entries named in this document (tags omitted). A change or cut given only in a name is not applied to a line headed by its entry.
UniProt Q9R237: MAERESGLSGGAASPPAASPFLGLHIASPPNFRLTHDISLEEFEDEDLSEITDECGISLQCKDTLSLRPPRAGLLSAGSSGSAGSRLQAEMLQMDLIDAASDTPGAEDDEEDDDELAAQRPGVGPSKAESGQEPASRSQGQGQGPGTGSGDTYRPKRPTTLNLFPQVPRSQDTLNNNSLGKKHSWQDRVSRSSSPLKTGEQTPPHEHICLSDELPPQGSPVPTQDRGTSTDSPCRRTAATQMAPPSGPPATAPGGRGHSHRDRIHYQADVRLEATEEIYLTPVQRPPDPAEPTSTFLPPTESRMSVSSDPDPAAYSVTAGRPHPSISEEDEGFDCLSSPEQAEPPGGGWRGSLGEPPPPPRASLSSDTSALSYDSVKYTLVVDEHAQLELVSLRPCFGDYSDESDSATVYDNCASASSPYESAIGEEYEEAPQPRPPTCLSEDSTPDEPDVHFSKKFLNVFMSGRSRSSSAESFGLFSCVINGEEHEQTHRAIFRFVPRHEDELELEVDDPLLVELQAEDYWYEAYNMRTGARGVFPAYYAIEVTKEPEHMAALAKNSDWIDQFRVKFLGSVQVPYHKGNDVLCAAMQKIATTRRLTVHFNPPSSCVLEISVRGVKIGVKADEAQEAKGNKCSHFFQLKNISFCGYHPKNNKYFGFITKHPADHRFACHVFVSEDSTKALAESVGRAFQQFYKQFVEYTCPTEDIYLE

For some of these results: Protein sequences can lack the tags named with them. For some of these results: Construct, isoform or probe ends are uncertain for at least one entry. For some of these results: No signal at the amounts used counts as a negative. For some of these results: At least one result comes from cells or an extract, where the contact may be indirect.

Data set [1] concerns the target T1, IB1 expressed in betaTC3 cells (Rattus) (UniProt Q9R237).
T1 sequence (limits assumed): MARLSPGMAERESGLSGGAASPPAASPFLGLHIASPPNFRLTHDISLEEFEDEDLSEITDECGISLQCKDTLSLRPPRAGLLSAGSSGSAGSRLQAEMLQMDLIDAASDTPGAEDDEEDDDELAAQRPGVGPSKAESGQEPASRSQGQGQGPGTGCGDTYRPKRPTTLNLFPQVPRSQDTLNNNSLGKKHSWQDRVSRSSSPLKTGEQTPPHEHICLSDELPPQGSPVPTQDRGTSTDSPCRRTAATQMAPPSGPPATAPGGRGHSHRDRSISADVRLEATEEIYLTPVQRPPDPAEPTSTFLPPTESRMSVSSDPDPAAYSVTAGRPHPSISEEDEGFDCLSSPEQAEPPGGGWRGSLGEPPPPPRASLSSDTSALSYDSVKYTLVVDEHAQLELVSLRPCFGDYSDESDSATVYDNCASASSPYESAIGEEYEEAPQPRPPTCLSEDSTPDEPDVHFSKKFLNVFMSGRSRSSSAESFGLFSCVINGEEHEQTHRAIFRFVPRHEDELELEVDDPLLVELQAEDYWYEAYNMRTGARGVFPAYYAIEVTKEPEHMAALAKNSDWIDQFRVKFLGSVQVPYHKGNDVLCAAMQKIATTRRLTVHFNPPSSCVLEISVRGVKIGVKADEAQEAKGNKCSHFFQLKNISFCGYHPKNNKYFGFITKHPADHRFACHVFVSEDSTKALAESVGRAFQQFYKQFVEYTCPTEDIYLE
The data set is described as follows: activity in cells. The settings on record: luciferase transactivation in betaTC3; absent in InR1-G9; protein in cells; variant of RIPE3; only the site is given.

Data set [2] relates to IB1/GTII- and RIPE3-binding activity in betaTC3 nuclear extract (Mus musculus). The data set is described as follows: EMSA. The settings on record: protein in an extract; label: 32P. In general terms: A gel shift assay detects complexes by their altered migration in electrophoresis.
The target in a further data set is T2, IB1 1-280 (Rattus) (UniProt Q9R237).
T2 sequence: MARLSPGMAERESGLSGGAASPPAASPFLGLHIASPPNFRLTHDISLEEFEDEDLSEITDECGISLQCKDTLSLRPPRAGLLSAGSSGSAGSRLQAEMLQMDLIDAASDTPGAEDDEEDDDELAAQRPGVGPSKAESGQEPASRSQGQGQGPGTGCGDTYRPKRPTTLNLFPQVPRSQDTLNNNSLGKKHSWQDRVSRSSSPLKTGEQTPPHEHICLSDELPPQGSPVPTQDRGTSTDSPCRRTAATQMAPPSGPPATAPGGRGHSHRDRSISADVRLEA
The data set is described as follows: binding assay. The settings on record: SouthWestern; purified recombinant protein; label: 32P.

Sequence “GATCTGGAAACTGCAGCTTCAGCCCCTCTGGCCATCTGCTGATCCG (double strand) [5xRIPE3 SV40 minimal promoter luciferase reporter]” returned an activity on this sequence in data set [1] of 5 fold. For the sequence “GATCTGGAAACTGCAGCTTCAGCCCCTCTGGCCATCTGCTGATCCG (double strand) [RIPE3]”, the binding result in data set [2] was “binds”. Regarding “GTAAAGGGTGTATTGATTGGATTACCATCAATACTCAGCTTCT (double strand) [GTII]”, the binding result in data set [2] was “binds”; in the data set with IB1 1-280 (Rattus) it was “no binding”.
